Assay results taken from PubChem BioAssay AID1458 (National Center for Advancing Translational Sciences (NCATS), 2008).
In all, about 210,000 compounds went through this assay and about 5,900 (2.8%) were called active. About 5% were inconclusive and are not listed. Calls come from the whole dose curve; as a rule, active = well fitted activation curve with a large enough effect; inconclusive = small, poorly fitted or top-dose-only effect; inactive = no such curve, though single readings can be large or run the other way. Only a part is listed here, and it is no random draw. Where no call is shown, the source filed none.

Assay: qHTS Assay for Enhancers of SMN2 Splice Variant Expression; note: nearly all actives have a fitted effect of over 55% in size; for activity change, positive = activation: % of control where 0% means no effect
Settings: HEK293 SMN2-luciferase splicing reporter, luminescence, 30-36 h; activity change, positive = activation: at 46.1 µM (top of the series) unless noted
Procedure, shortened: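 qHTS luciferase splicing reporter: luminescence rises when SMN2 exon 7 is included in transfected HEK293 cells. Compound exposure lasted 30-36 h at 37C, with 4.5 mM final sodium butyrate as control, followed by a ONE-Glo read.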
Potency is the fitted concentration of half-maximal effect.

**Q.** For COCCNC(=O)c1cc2sc3ccccc3c2s1, which Potency is on record?
**A.** active: 14.1 µM

**Q.** With Clc1ccc(SCCn2cncn2)cc1 as the molecule, how does the activity change, positive = activation read?
**A.** 34.3%

**Q.** For Clc1ccc(CCNC(c2nnc(-c3ccccc3)o2)c2ccccc2Cl)cc1 (stereo unspecified), which activity change, positive = activation is on record?
**A.** 33.2%

**Q.** Which activity change, positive = activation does the source give for CN1/C(=C\C(=O)c2ccccc2Cl)c2ccccc2CC1(C)C here?
**A.** 49.7% [at 1.84 µM]

**Q.** Which “activity change, positive = activation” value does the source give for CCOC(=O)C1(C(=O)O)NC(=O)CC1c1ccccc1 (stereo unspecified) here?
**A.** inactive: -14.1%

**Q.** For Cc1cc(C(=O)Nc2sc(C)c(C)c2C#N)no1, which activity change, positive = activation is on record?
**A.** 88.1%

**Q.** For COc1cccc(NC(=O)Cn2cc(C#N)c3ccccc32)c1, which activity change, positive = activation is on record?
**A.** -33.2%

**Q.** For Cn1nnnc1SCCNCc1ccc(OCc2ccc(Cl)cc2)cc1, which “activity change, positive = activation” value is on record?
**A.** inactive: -55.1%

**Q.** Which Potency does the source give for O=C(CN1C(=O)NC2(CCCCCC2)C1=O)c1ccc2c(c1)OCCO2 here?
**A.** active: 17.8 µM

**Q.** With CCCCNC(=O)C1CCC(CNc2nc(=S)[nH]c3ccccc23)CC1 (stereo unspecified) as the molecule, how does the activity change, positive = activation read?
**A.** -30.7%

**Q.** For CCOC(=O)C1CCCN(C(=O)c2cnn3c(C(F)F)cc(-c4ccc(C)cc4)nc23)C1 (stereo unspecified), which activity change, positive = activation is on record?
**A.** 33.2%

**Q.** Which “activity change, positive = activation” value does the source give for Cc1ccc(S(=O)(=O)Oc2ccc(N3C(=O)C4C5CCC(C5)C4C3=O)cc2)cc1 (stereo unspecified) here?
**A.** inactive: -48.4%

**Q.** Which activity change, positive = activation does the source give for CC(=NCC1CCCO1)C1=C(O)CC(C)(C)CC1=O (stereo unspecified) here?
**A.** 37.6%

**Q.** For CCn1cnc2c1c(=O)n(Cc1nnc3n1-c1ccccc1SC3)c(=O)n2Cc1ccccc1, which activity change, positive = activation is on record?
**A.** 48%

**Q.** For O=C(c1ccc(CS(=O)(=O)c2c(Cl)cccc2Cl)o1)N1CCN(c2ccccc2)CC1, which “activity change, positive = activation” value is on record?
**A.** inactive: -41.4%

**Q.** For Cc1ccc2nc(NC(=O)C3CCN(S(=O)(=O)c4cccnc4)CC3)sc2c1, which “activity change, positive = activation” value is on record?
**A.** inactive: -32.2%

**Q.** Which “activity change, positive = activation” value does the source give for CCN(CC)S(=O)(=O)c1ccc2oc(C(=O)NCc3ccccc3OC)c(C)c2c1 here?
**A.** inactive: -39.5%

**Q.** Which activity change, positive = activation does the source give for O=C(CCSc1nnc2scc(-c3ccccc3)n12)NCc1ccc2c(c1)OCO2 here?
**A.** 37.2%

**Q.** Which activity change, positive = activation does the source give for COc1ccc(C(C#N)Nc2ccccc2)cc1 (stereo unspecified) here?
**A.** -47.1%

**Q.** For Cc1cc(C(F)(F)F)c(C#N)c(SCC(=O)NC(C)(C)C)n1, which activity change, positive = activation is on record?
**A.** 37.9%

**Q.** With O=[N+]([O-])c1ccc(N2CCN(C(=S)NC3CCCCC3)CC2)cc1 as the molecule, how does the activity change, positive = activation read?
**A.** -39.6%

**Q.** With O=C(CCc1nc2ccccc2[nH]1)N1CCN(C(=O)c2ccco2)CC1 as the molecule, how does the activity change, positive = activation read?
**A.** 11.8%

**Q.** With CC1CCC(C(C)C)C(OP(=O)(c2ccccc2)C(O)c2ccncc2)C1 (stereo unspecified) as the molecule, how does the activity change, positive = activation read?
**A.** -54.2%

**Q.** Which activity change, positive = activation does the source give for Cc1ccccc1NC(=S)N=Nc1c(O)n(C)c2ccc(S(=O)(=O)N3CCOCC3)cc12 here?
**A.** -33.5%

**Q.** Which activity change, positive = activation does the source give for CCOc1ccc(NC(=S)NC(=O)/C=C/c2ccc(C)cc2)c([N+](=O)[O-])c1 here?
**A.** -55.8%

**Q.** Which “activity change, positive = activation” value does the source give for C=CC[n+]1ccc(/C=C2\C=Cc3cc(C)ccc3N2CC)c2ccccc21 here?
**A.** inactive: -98.3%

**Q.** For O=C(CC(=O)c1ccccc1O)c1ccc(F)cc1, which “activity change, positive = activation” value is on record?
**A.** inactive: -47.1%

**Q.** Which “activity change, positive = activation” value does the source give for Cc1ccc(Oc2c(C(N)=O)cc([N+](=O)[O-])cc2[N+](=O)[O-])cc1 here?
**A.** inactive: -98.1%

**Q.** With CCCC(C(=O)c1ccccc1)n1cncn1 (stereo unspecified) as the molecule, how does the activity change, positive = activation read?
**A.** 62%

**Q.** For O=C(Nc1ccc2c(c1)OCO2)C1CCCN(c2nc3ccccc3s2)C1 (stereo unspecified), which activity change, positive = activation is on record?
**A.** -31.1%

**Q.** With O=C(CSc1ncnc2ccccc12)Nc1cc(S(=O)(=O)N2CCCCC2)ccc1Cl as the molecule, how does the “activity change, positive = activation” value read?
**A.** inactive: -33.9%

**Q.** For CC1(C)NC(=O)N(CC(O)CNC23CC4CC(CC(C4)C2)C3)C1=O (stereo unspecified), which activity change, positive = activation is on record?
**A.** 36.7%

**Q.** For Cc1nc2cc(-c3ccc(Cl)cc3)nn2c(NCCN(C)C)c1C, which activity change, positive = activation is on record?
**A.** -83.4%

**Q.** With c1ccc(-c2nnc(-c3ccccc3)o2)cc1 as the molecule, how does the Potency read?
**A.** active: 12.6 µM

**Q.** Which “activity change, positive = activation” value does the source give for Cc1ccc(OCC(=O)N(Cc2ccccc2)c2ccccn2)cc1 here?
**A.** inactive: -25.5%

**Q.** For COc1ccc(S(=O)(=O)CC2(O)CCN(C(=O)CC(C)C)CC2)cc1, which activity change, positive = activation is on record?
**A.** -33.5%

**Q.** For Cc1ccc(-c2nc(N)n(S(C)(=O)=O)n2)cc1, which activity change, positive = activation is on record?
**A.** 39.1%

**Q.** With COc1ccc(COc2cc(-c3cccc(OC)c3)nc3ccc(N)cc23)cc1 as the molecule, how does the “activity change, positive = activation” value read?
**A.** inactive: -40.6%

**Q.** For Cc1ccccc1NC(=O)c1sc(NC(=O)COc2ccccc2)c(C#N)c1C, which “activity change, positive = activation” value is on record?
**A.** inactive: -47.7%

**Q.** Which activity change, positive = activation does the source give for CC(C)NS(=O)(=O)c1ccc(CCC(=O)N2CCOCC2)cc1 here?
**A.** 32.7%

**Q.** With CCOC(=O)C1CCCN(C(=O)C2CCN(S(=O)(=O)c3cnc[nH]3)CC2)C1 (stereo unspecified) as the molecule, how does the activity change, positive = activation read?
**A.** 38.2%

**Q.** Which Potency does the source give for Cc1ccc(N2CS(=O)(=O)/C(=C/N(C)C)C2=O)cc1 here?
**A.** active: 12.6 µM

**Q.** With Cc1ccc(CNc2nc(Cl)c(C#N)s2)cc1 as the molecule, how does the activity change, positive = activation read?
**A.** 127%

**Q.** For CSc1ccccc1C(=O)Nc1cccc(N(C)S(C)(=O)=O)c1, which activity change, positive = activation is on record?
**A.** 60.4%

**Q.** For CCOC(=O)c1c(NC(=O)CSc2nnc(C)c(=O)[nH]2)sc2c1CCC2, which activity change, positive = activation is on record?
**A.** 35.7%

**Q.** With COc1cc(C(C[N+](=O)[O-])c2c(-c3ccccc3)cc3ccccn23)cc(OC)c1OC (stereo unspecified) as the molecule, how does the activity change, positive = activation read?
**A.** 31.6%

**Q.** Which “activity change, positive = activation” value does the source give for O=C1C2=C(Nc3ccccc3SC2c2ccc(C(F)(F)F)cc2)c2ccccc21 (stereo unspecified) here?
**A.** inactive: -73.8%

**Q.** With COCCn1c(=O)[nH]c2cc(C(=O)NCCN3CCN(c4ccc(OC)cc4)CC3)ccc2c1=O as the molecule, how does the “activity change, positive = activation” value read?
**A.** inactive: -57.7%

**Q.** For C[C@H](Oc1ccc(Oc2cnc3ccc(Cl)cc3n2)cc1)C(=O)O, which activity change, positive = activation is on record?
**A.** inactive: -5.4% [at 9.22 µM]

**Q.** With COc1ccc(NC(=O)CSc2ccc(F)cc2)cc1S(=O)(=O)N1CCCCC1 as the molecule, how does the activity change, positive = activation read?
**A.** -45.9%

**Q.** For CC(CN1CCCC(C(N)=O)C1)c1ccccc1 (stereo unspecified), which activity change, positive = activation is on record?
**A.** 34.6%

**Q.** For O=C(Cn1nnc(-c2ccccc2)n1)N/N=C/c1cc([N+](=O)[O-])ccc1O, which activity change, positive = activation is on record?
**A.** -101%

**Q.** For CN1CCN(c2ncc3nc(-c4cc(F)cc(F)c4)c(=O)n(-c4ccccc4)c3n2)CC1, which “activity change, positive = activation” value is on record?
**A.** inactive: -28.4%

**Q.** For CCOC(=O)c1cnn2c(C)cc(-c3ccccc3)nc12, which Potency is on record?
**A.** active: 31.6 µM

**Q.** For Cc1nc2scc(C)n2c(=O)c1S(=O)(=O)Nc1ccc(N2CCN(C(=O)C(C)C)CC2)cc1, which activity change, positive = activation is on record?
**A.** -32.8%

**Q.** For Cc1ccc2oc(=O)c3cnn(CC(=O)N(CCCN4CCOCC4)Cc4ccco4)c3c2c1, which activity change, positive = activation is on record?
**A.** 57.6%

**Q.** Which activity change, positive = activation does the source give for COC(=O)c1nn(-c2ccccc2)c2nnc(Cc3ccc(C)cc3)c(=O)n12 here?
**A.** 3.91%

**Q.** For O=C(CCNC(=O)c1ccccc1Cl)Nc1nccs1, which activity change, positive = activation is on record?
**A.** -26%

**Q.** Which activity change, positive = activation does the source give for COC(=O)C(C(=O)Nc1ncccn1)C1CCCCCC1 (stereo unspecified) here?
**A.** 41.4%

**Q.** For Nc1nonc1-c1nc2ccccc2n1CC(=O)N1CCN(c2ccc(F)cc2)CC1, which “activity change, positive = activation” value is on record?
**A.** inactive: -34.9%

**Q.** For CCn1c(SCC(=O)Nc2ccc(S(=O)(=O)Nc3ccccn3)cc2)nnc1-c1ccncc1, which activity change, positive = activation is on record?
**A.** 34.4%

**Q.** Which activity change, positive = activation does the source give for COc1ccc(Cc2nnc(N/N=C/c3ccc(O)cc3O)[nH]c2=O)cc1OC here?
**A.** -83.9%

**Q.** For CCCCCC(=O)N1CCN(CCN=CC2=C(O)CC(c3ccc(OC)c(OC)c3)CC2=O)CC1 (stereo unspecified), which activity change, positive = activation is on record?
**A.** 33.1%

**Q.** With CCOc1ccc(CCNc2nc3c(c(=O)n(C)c(=O)n3C)n2CC)cc1OCC as the molecule, how does the “activity change, positive = activation” value read?
**A.** inactive: -85.6%

**Q.** For COc1ccc(C(=O)N/N=C(\c2ccccc2)c2ccccn2)cc1, which “activity change, positive = activation” value is on record?
**A.** inactive: -66.9%

**Q.** Which Potency does the source give for CCCCn1c(/C=C/c2ccco2)nc2ccccc21 here?
**A.** active: 15.8 µM
